In article PMC10931150:
Results are given in words; binding and its absence hold for the method and conditions named. Binding seen in cells or lysates may run through a third protein. Some binding calls cover weakened binding; strength is not graded here.

The chains behind the UniProt entries cited, without tags or fusion partners. Where a name states a change or a piece, a line headed by the entry shows the natural chain unless it says otherwise. A line that says so, or that is headed by a name, gives the form on record, which may keep a tag or linker. Residues count along the entry.
wild type Flag-Strep-tagged NM1 (O00159, form named): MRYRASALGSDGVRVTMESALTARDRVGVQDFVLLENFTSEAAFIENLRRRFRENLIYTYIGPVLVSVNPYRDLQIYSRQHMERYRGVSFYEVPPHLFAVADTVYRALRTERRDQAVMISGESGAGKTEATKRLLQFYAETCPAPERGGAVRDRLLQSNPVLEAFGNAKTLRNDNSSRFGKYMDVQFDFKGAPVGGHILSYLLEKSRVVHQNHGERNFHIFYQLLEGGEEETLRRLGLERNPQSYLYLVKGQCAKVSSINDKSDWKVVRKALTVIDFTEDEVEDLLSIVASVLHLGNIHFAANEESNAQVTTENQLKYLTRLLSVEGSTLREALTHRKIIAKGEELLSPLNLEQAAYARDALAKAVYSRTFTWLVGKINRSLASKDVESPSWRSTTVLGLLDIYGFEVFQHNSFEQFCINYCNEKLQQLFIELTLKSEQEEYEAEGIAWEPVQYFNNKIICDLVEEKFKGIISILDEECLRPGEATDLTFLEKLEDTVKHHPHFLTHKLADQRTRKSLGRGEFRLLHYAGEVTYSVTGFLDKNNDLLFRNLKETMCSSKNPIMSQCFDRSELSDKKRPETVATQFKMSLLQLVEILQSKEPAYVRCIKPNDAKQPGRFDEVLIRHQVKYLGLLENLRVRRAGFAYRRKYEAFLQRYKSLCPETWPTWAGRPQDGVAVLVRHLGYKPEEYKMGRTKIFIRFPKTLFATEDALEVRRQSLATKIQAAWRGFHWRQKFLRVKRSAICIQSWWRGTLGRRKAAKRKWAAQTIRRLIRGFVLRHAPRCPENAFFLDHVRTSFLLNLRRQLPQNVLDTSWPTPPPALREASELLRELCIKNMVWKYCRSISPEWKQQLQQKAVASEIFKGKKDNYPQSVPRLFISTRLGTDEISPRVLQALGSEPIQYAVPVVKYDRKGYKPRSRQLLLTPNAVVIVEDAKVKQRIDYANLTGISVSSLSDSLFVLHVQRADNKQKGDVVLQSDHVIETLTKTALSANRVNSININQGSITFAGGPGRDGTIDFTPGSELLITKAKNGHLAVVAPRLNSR
mutant Flag-Strep-tagged NM1 (K908A) (O00159, form named): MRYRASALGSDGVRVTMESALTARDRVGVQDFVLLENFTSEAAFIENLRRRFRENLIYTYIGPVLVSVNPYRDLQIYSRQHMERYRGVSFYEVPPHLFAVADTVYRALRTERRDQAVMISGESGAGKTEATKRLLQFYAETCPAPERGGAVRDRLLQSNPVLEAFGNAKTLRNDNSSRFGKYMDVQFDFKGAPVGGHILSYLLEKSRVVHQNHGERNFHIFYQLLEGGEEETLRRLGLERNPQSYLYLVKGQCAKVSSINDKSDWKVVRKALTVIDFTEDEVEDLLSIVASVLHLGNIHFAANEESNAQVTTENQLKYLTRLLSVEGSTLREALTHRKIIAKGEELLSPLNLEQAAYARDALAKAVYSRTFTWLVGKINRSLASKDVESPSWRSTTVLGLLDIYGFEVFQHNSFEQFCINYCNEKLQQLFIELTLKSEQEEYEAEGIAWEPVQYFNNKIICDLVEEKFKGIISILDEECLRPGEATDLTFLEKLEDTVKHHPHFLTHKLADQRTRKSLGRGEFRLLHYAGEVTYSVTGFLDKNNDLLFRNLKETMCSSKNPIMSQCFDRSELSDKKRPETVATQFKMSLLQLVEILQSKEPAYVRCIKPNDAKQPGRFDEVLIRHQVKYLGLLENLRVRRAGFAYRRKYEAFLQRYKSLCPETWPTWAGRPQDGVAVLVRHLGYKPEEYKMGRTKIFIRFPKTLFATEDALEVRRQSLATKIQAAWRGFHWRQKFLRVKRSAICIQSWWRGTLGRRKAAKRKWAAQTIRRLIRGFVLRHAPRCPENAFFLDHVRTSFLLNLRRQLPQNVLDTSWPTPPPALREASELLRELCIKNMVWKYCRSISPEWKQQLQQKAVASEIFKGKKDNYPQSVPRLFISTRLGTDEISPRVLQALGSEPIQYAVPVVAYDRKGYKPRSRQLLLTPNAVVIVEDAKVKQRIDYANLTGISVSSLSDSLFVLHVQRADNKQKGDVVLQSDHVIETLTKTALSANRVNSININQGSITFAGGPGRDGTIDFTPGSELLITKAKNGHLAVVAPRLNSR
lamin A (P02545, residues 1-646): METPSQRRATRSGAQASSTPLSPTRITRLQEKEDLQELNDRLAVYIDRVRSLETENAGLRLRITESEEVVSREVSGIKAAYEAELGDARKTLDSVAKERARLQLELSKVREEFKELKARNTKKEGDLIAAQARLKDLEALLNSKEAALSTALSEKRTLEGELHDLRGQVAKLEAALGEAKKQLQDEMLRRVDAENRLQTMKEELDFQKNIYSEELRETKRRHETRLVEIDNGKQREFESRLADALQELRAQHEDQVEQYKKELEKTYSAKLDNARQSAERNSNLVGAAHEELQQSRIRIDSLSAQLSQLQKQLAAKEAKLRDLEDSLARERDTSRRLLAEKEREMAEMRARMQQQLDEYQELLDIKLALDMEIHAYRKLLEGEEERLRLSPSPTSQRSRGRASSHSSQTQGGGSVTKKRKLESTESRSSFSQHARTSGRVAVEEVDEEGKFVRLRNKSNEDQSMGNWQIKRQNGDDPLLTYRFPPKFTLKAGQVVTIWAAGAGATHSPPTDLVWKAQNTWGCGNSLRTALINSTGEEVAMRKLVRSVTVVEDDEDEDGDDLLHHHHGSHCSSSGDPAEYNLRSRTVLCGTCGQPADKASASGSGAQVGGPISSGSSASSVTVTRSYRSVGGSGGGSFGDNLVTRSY
lamin C (P02545-2, form named): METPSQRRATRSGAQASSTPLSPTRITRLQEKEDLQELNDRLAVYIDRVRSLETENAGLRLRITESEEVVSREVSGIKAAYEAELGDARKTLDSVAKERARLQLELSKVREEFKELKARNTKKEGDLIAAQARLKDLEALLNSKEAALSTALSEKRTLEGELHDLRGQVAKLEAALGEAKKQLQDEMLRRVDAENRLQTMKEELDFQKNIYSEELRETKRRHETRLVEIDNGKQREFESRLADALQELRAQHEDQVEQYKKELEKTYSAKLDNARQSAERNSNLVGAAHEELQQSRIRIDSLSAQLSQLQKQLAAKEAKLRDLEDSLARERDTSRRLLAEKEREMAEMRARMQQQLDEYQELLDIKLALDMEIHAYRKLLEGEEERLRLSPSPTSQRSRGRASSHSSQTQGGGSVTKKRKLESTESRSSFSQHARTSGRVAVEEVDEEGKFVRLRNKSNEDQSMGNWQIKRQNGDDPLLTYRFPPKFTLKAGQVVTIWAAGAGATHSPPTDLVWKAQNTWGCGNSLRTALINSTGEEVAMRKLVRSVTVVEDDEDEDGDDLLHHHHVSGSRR

Columns and labels:
[1] = target: nuclear myosin 1 (human (endogenous in HeLa)) (UniProt O00159); assay: co-IP; anti-NM1 antibody on magnetic protein G beads, HeLa nuclear extract in 1x RIPA buffer, 2 h at 4 °C; SDS-PAGE and immunoblot with anti-lamin A/C
[2] = target: wild type Flag-Strep-tagged NM1 (UniProt O00159); assay: pull-down; pull-down through the Strep tag of WT-NM1 or mut-NM1 from lysates of transfected HeLa cells (RIPA buffer, sonicated); two-dimensional electrophoresis and immunoblot with lamin A/C antibody
[3] = target: mutant Flag-Strep-tagged NM1 (K908A) (UniProt O00159); assay: as above

Substance | binding [1] | binding [2] | binding [3]
lamin A (from UniProt P02545 1-646) | binds | binds | 
lamin C (from UniProt P02545-2 1-572) | binds | binds | binds
